Drawing on the supplement of paper PMC12819154, “High-throughput peptide-centric local stability assay extends protein–ligand identification to membrane proteins, tissues and bacteria” (Nature Structural & Molecular Biology, 2025), this text covers log2 fold change for 11 targets.

The chains behind the UniProt entries cited, without tags or fusion partners. Where a name states a change or a piece, a line headed by the entry shows the natural chain unless it says otherwise.
UniProt Q8VBT2: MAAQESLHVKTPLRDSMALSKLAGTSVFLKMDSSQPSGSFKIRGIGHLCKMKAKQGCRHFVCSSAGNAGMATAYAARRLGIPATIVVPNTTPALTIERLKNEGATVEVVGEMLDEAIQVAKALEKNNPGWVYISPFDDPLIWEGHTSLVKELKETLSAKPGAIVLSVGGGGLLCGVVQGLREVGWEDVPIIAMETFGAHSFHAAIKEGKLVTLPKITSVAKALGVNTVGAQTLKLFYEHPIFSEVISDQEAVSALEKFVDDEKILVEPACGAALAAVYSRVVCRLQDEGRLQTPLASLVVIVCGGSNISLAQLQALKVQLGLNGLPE
UniProt Q8R516: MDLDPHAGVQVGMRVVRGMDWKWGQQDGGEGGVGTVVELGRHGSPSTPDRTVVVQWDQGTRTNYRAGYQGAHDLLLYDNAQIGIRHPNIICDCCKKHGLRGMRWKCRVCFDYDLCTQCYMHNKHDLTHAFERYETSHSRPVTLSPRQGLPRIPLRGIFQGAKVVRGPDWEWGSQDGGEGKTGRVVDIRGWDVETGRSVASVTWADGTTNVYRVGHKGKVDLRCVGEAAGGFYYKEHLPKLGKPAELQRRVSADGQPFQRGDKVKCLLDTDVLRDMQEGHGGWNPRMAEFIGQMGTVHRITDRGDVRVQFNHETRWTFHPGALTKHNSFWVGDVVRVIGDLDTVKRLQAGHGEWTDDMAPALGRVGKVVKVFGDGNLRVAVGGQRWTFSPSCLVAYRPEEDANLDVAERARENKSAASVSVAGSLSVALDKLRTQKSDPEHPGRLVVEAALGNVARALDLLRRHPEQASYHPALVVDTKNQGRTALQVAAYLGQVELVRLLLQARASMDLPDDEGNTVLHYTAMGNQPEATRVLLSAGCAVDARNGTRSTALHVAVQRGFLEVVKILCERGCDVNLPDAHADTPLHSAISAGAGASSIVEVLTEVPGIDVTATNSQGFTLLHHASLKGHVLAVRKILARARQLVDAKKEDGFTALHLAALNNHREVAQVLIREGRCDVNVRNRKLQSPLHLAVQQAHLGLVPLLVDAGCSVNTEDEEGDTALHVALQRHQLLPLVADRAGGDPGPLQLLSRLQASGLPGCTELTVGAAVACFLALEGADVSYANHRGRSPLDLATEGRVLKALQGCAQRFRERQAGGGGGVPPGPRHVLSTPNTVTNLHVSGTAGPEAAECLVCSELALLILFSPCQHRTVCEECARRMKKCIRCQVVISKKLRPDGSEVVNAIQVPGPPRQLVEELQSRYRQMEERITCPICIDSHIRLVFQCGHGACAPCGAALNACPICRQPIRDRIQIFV
UniProt Q8VE97: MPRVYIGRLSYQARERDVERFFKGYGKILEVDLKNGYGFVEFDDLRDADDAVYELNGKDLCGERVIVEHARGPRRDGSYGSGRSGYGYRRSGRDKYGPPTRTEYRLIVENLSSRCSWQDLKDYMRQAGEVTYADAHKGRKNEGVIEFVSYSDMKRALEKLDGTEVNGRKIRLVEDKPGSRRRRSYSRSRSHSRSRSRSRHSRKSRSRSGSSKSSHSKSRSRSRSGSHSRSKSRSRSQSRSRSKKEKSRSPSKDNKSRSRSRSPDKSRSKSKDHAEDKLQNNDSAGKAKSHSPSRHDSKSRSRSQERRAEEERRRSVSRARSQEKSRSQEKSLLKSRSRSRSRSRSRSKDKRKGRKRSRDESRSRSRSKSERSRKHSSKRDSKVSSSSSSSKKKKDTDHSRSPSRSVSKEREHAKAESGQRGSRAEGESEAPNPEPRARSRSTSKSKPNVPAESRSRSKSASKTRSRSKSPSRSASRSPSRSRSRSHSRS
UniProt Q8R2S9, whole entry: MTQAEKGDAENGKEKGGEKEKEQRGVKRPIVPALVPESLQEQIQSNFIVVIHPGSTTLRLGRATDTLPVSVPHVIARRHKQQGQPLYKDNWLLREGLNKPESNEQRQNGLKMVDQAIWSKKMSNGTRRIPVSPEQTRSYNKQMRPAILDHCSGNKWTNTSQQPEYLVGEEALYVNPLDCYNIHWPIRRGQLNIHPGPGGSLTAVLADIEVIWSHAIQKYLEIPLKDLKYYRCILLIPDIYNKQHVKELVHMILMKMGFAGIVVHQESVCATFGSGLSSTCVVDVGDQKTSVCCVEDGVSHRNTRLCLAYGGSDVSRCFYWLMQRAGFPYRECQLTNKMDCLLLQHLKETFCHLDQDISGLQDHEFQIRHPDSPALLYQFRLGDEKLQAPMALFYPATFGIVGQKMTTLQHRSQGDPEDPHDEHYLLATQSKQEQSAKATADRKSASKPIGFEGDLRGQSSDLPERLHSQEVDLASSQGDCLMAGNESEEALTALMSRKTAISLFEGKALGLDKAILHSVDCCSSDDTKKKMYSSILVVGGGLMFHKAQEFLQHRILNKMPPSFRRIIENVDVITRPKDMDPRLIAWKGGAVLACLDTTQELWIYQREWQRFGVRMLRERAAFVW
UniProt Q8VEH6: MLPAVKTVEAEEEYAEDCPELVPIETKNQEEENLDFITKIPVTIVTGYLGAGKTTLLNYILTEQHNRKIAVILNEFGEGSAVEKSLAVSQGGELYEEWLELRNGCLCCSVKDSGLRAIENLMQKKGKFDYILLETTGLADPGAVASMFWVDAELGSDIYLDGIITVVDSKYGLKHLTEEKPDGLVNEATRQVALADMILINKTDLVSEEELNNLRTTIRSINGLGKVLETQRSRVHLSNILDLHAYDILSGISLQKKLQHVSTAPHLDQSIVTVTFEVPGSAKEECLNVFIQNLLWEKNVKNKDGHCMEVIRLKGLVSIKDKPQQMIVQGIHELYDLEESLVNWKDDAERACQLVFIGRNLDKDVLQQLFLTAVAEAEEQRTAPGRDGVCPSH
UniProt Q8R480: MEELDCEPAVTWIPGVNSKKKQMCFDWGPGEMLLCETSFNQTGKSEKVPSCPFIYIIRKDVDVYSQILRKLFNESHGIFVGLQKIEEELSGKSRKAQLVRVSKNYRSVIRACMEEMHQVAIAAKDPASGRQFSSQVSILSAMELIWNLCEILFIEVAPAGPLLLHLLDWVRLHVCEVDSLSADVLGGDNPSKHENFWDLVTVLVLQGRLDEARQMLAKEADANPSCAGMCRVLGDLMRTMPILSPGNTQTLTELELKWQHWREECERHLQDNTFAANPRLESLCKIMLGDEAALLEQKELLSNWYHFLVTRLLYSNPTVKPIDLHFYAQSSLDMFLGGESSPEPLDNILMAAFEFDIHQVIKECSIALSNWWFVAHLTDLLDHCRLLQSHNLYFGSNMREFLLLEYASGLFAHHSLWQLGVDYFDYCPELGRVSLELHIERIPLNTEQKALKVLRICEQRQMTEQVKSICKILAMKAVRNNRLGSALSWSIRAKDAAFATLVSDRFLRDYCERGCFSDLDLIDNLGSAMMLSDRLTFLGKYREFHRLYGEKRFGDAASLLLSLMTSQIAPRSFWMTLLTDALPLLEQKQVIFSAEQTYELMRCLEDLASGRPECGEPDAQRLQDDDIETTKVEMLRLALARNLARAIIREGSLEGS
UniProt Q8R332: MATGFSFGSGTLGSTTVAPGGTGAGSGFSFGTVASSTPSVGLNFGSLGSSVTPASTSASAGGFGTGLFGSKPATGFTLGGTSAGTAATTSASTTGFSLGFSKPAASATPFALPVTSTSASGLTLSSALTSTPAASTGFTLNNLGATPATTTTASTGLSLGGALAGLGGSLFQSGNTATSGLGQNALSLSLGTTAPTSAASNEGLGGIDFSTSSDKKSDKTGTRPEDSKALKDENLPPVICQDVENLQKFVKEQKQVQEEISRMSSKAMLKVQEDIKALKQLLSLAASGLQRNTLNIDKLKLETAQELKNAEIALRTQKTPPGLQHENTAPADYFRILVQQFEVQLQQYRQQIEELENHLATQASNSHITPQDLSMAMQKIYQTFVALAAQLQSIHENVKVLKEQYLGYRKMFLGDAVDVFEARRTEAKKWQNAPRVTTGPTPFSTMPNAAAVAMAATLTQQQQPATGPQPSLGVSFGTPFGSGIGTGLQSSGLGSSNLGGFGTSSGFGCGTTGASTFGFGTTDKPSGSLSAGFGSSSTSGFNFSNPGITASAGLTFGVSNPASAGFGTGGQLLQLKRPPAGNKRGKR
UniProt Q8VDS4: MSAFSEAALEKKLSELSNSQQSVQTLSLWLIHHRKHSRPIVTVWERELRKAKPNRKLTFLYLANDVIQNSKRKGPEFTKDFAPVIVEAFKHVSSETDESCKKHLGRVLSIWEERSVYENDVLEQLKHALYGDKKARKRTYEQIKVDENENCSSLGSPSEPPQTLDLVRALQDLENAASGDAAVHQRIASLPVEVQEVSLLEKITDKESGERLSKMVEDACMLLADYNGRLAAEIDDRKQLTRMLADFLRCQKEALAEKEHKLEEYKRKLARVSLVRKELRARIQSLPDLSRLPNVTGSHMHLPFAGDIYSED
UniProt Q8VDW0, whole entry: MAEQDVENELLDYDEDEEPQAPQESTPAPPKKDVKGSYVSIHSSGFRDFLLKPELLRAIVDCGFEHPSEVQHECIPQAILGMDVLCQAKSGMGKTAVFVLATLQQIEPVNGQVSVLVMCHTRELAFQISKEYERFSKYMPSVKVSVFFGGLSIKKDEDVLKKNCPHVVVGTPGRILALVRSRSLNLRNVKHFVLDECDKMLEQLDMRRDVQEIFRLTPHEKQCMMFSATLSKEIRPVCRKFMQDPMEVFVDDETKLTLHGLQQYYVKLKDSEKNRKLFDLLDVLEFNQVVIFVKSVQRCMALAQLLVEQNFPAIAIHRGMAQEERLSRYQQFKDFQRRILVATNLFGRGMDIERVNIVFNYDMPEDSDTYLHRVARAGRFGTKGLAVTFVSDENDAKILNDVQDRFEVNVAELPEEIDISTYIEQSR

The list shows a part of the results. Small differences around the control level are noise.

Compound in this assay: CN[C@@H]1C[C@H]2O[C@@](C)([C@@H]1OC)n1c3ccccc3c3c4c(c5c6ccccc6n2c5c31)C(=O)NC4 [staurosporine]
Put plainly: log2 fold change of tryptic peptide abundance, ligand vs vehicle (limited proteolysis) (log2 ratio); higher = more trypsin-susceptible (destabilized). The following applies: ligand concentration: 20 uM; sample: mouse liver crude lysate; replicate design: treated separately.

As for “UniProt Q8VBT2 (peptide sequence: ILVEPACGAALAAVYSR, peptide start residue: 264)”, the log2 fold change turned out to be 0.2.

With “UniProt Q8R516 (peptide sequence: STALHVAVQR, peptide start residue: 548)”, the log2 fold change was -0.443.

With “UniProt Q8VE97 (peptide sequence: SKPNVPAESR, peptide start residue: 445)”, the log2 fold change was -0.103.

“UniProt Q8VEG6 (peptide sequence: EKYDPPDPR, peptide start residue: 9)”: the log2 fold change was determined as 0.258.

In the case of “UniProt Q8VDD9 (peptide sequence: HNAAQMNGKPESSSVVR, peptide start residue: 1489)”, the log2 fold change is -0.482.

As for “UniProt Q8R2S9 (peptide sequence: IIENVDVITRPK, peptide start residue: 566)”, the log2 fold change turned out to be 0.319.

For the target “UniProt Q8VEH6 (peptide sequence: KIAVILNEFGEGSAVEK, peptide start residue: 68)”, the log2 fold change was -0.323.

On to “UniProt Q8R480 (peptide sequence: LQDDDIETTKVEMLR, peptide start residue: 622)”, for which the log2 fold change was -0.039.

Take “UniProt Q8R332 (peptide sequence: VLKEQYLGYR, peptide start residue: 400)”: the log2 fold change was found to be 0.371.

Turning to “UniProt Q8VDS4 (peptide sequence: IQSLPDLSR, peptide start residue: 283)”, the log2 fold change is 0.346.

For “UniProt Q8VDW0 (peptide sequence: LTLHGLQQYYVK, peptide start residue: 256)”, the log2 fold change is -0.444.
